Laboratory results published in patent publication US7323541B2 (Takeda Pharmaceutical Company Limited, priority 2001, dated 2008).
Where no end group is shown, it is not given here.

Test: Fmoc solid-phase peptide synthesis; 2-chlorotrityl resin; DCC/HOBt; PyAOP/HOAt/DIEA for pseudoproline dipeptide
Conditions: whole synthesis, scale 0.25 mmol

SFRNGVGSGVKKTSFRRA
isolated mass (acetate): 107.0 mg
crude mass (acetate (rat TGR23-2 ligand (1-18))): 219.4 mg
